Test results taken from US9656978B2, “Acylpiperazines as inhibitors of transglutaminase and their use in medicine” (ASTON UNIVERSITY, priority 2012, dated 2017).
At least one structure is not confirmed: it was looked up by name or label, or the drawing left a doubt. Some entries repeat one wording, which the source may state once for all of them.

Experiments:
[1] = molecular target: T1, purified recombinant human FXIIIa (Homo sapiens, UniProt P00488); assay: Selectivity assay, FXIIIa, biotin X-cadaverine incorporation into N,N′-dimethylcasein (Example 4); type: biochemical
T1 construct: purchased Zedira, Germany
T1 sequence (P00488 39-732 limits assumed): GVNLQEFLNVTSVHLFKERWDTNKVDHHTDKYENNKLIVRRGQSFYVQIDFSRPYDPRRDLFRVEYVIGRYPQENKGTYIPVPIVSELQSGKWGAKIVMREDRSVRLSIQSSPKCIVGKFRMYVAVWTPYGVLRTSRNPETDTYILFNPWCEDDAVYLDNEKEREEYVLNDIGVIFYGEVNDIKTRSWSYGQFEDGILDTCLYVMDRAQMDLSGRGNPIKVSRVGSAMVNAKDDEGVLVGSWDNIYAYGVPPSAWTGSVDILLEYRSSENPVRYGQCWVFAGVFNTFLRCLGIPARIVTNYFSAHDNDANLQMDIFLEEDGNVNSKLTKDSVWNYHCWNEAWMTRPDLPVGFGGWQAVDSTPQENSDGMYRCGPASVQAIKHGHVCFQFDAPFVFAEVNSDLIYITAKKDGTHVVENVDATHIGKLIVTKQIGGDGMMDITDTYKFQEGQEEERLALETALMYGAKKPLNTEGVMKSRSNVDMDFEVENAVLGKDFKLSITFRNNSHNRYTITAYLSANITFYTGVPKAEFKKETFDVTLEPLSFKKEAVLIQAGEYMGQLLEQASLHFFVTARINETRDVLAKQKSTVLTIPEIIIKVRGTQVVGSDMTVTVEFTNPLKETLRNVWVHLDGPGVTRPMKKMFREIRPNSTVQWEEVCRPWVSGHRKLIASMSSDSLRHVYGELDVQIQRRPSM
Procedure: (§1) TG transamidation activity and the effect of inhibitors on activity was measured by biotin X-cadaverine incorporation into N,N′-dimethylcasein. After coating 96 well plates with 100 μl of 10 mg/ml N,N′-dimethylcasein in 50 mM Tris-Cl, pH8 at 4° C. over night, plates were washed with TBS-0.05% Tween-20(v/v), pH 7.6 and TBS, pH 7.6, and either 100 μl purified recombinant human TG2 (2 μg/ml Zedira, Germany) or 100 μl purified recombinant human FXIIIa (2 μg/ml Zedira, Germany, preactivated by incubation with 0.01 U bovine thrombin/μg FXIII at room temperature for 30 minutes) in 50 mM Tris-HCl, pH7.4, containing 1 mM DTT, 10 mM CaCl2 and 0.1 μM biotin-cadaverine added into the coated wells containing the appropriate concentration of inhibitor. The reaction was allowed to proceed for 1 h at 37° C. The plate was then washed twice with TBS-Tween-20 (v/v), pH 7.6 and once with TBS, pH 7.6 before being blocked with 100 μl of blocking buffer (3% (w/v) BSA in TBS-Tween, pH 7.6) for 30 min at 37° C. After blocking, the wells were incubated with 100 μl HRP-conjugated ExtrAvidin peroxidase (Sigma-Aldrich, UK) in blocking buffer (1:1,000 dilution) for 1 h at 37° C. After another set of washes, TG2 activity was measured using Sigma Fast OPD, tablets dissolved in 20 ml of distilled H2O. The colour was developed by adding 2.5M H2SO4 and the absorbance at 490 nm measured using a microplate reader ELx808™. All inhibitors were dissolved in DMSO as a 100 mM solution prior to addition to the assay.

[2] = molecular target: T2, purified recombinant human TG2 (Homo sapiens, UniProt P21980); assay: Selectivity assay, TG2, biotin X-cadaverine incorporation into N,N′-dimethylcasein (Example 4); type: biochemical
T2 construct: purchased Zedira, Germany
T2 sequence (P21980 1-687): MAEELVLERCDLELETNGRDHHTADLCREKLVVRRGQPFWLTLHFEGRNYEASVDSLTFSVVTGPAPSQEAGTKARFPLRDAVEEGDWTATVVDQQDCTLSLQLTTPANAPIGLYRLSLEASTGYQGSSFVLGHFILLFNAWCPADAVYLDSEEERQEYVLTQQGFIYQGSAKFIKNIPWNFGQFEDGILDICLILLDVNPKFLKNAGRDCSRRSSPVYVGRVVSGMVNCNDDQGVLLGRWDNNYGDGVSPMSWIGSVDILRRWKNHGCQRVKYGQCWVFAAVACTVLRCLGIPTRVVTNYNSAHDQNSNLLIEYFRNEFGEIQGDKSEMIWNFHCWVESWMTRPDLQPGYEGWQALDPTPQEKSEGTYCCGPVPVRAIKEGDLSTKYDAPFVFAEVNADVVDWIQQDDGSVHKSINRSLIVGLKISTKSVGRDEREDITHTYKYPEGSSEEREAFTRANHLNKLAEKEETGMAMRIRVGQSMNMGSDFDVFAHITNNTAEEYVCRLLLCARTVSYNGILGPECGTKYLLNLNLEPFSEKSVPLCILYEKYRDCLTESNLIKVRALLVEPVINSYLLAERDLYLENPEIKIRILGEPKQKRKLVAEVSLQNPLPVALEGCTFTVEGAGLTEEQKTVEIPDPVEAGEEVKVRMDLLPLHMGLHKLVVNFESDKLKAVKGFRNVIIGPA
Procedure: as §1

[3] = molecular target: T3, intracellular TG2 activity in HUVEC cells (Homo sapiens, UniProt P21980); assay: Cell permeability: intracellular TG2 activity in ionomycin-activated HUVEC cells (biotin cadaverine incorporation); conditions: 50 uM inhibitor, 1 μM ionomycin, 3 h incubation, normalised to R281
T3 sequence (P21980 1-687): T2 sequence (P21980 1-687)

SMILES	activity against factor XIII, in words [1]	inhibitory effect on tissue transglutaminase (TG2), in words [2]	cell entry and inhibition of intracellular TG2 activity [3]
C[S+](C)CC(=O)N[C@@H](Cc1ccccc1)C(=O)N1CCN(C(=O)OCc2ccccc2)CC1 [EB 1-126]	very active against factor XIII	negligible inhibitory effect	–
C[S+](C)CC(=O)N[C@H](Cc1ccccc1)C(=O)N1CCN(C(=O)OCc2ccccc2)CC1 [EB 1-127]	very active against factor XIII	negligible inhibitory effect	–
C=CC(=O)N[C@H](Cc1ccccc1)C(=O)N1CCN(C(=O)OCc2ccccc2)CC1 [EB 1-131]	very active against factor XIII	negligible inhibitory effect	–
C=CC(=O)NCC(=O)N1CCN(S(=O)(=O)c2cccc3c(N(C)C)cccc23)CC1 [EB 1-155]	–	–	enter cells and have greater inhibition of intracellular TG2 activity
CC[S+](CC)CC(=O)NCC(=O)N1CCN(S(=O)(=O)c2cccc3c(N(C)C)cccc23)CC1 [EB 1-159]	–	–	prevents them from entering cells and affecting intracellular TG2 activity levels
C[S+](C)CC(=O)NCC(=O)N1CCN(C(=O)OCC23CC4CC(CC(C4)C2)C3)CC1 [EB 1-178]	–	–	prevents them from entering cells and affecting intracellular TG2 activity levels
